PubChem BioAssay AID1259308, NCATS | 2017
Shown is an unselected part of about 59,000 reagents. About 1,510 of all reagents (2.6%) count as active. 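Calls use total luciferase alone and ignore viability, so some active siRNAs may act by altering cell number.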 Entries without a mark were called inactive. Reagents against one gene are numbered here. Further read-outs or replicates are left out here.

Aim: 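Candidate targets for better recombinant protein yield in mammalian cells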 (primary screen)
Cells: human HEK293 embryonic kidney cells stably expressing firefly luciferase (HEK-CMV-Luc2-Hygro)
Knock-down reagent: single siRNA against human genes, 0.8 pmol siRNA per well
Duration: 72 h
Measured: 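Luciferase light (ONE-Glo) measured on one replicate plate set and viability (CellTiter-Glo) on the other, scaled to a negative control siRNA, with robust z-scores and luciferase per cell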
Reading the numbers: total luciferase, z-score and total luciferase, % of control: higher = more reporter protein produced
Hit rule: 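Active when the median/MAD z-score for overall luciferase is greater than 3; a gene was taken forward for validation with new siRNAs if at least two of its three siRNAs passed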
Calls: active = raised luciferase; inactive = no rise

With knock-down of HJV (hemojuvelin BMP co-receptor) #1 the results were total luciferase, z-score 1.97; total luciferase, % of control 121.
Against HJV (hemojuvelin BMP co-receptor) #2, the values are total luciferase, z-score 1.84; total luciferase, % of control 118.
With knock-down of HJV (hemojuvelin BMP co-receptor) #3, the screen gave total luciferase, z-score 0.173; total luciferase, % of control 85.3.
Silencing of LIMD1 (LIM domain containing 1) #1 came out at: total luciferase, z-score 0.76; total luciferase, % of control 97.
With knock-down of LIMD1 (LIM domain containing 1) #2 the results were total luciferase, z-score 0.398; total luciferase, % of control 89.8.
For LIMD1 (LIM domain containing 1) #3 the deposit lists total luciferase, z-score -0.475; total luciferase, % of control 72.4.
GNA15 (G protein subunit alpha 15) #1 gave total luciferase, z-score -2; total luciferase, % of control 42.2.
Silencing of GNA15 (G protein subunit alpha 15) #2 gave: total luciferase, z-score -0.639; total luciferase, % of control 69.2.
Silencing of GNA15 (G protein subunit alpha 15) #3 came out at: total luciferase, z-score -0.511; total luciferase, % of control 71.7.
Against HS3ST4 (heparan sulfate-glucosamine 3-sulfotransferase 4) #1 the deposit lists total luciferase, z-score 1.18; total luciferase, % of control 105.
HS3ST4 (heparan sulfate-glucosamine 3-sulfotransferase 4) #2 scored total luciferase, z-score -0.432; total luciferase, % of control 73.3.
With knock-down of HS3ST4 (heparan sulfate-glucosamine 3-sulfotransferase 4) #3, the screen gave total luciferase, z-score -0.556; total luciferase, % of control 70.8.

5 entries from above, showing only “total luciferase, z-score”.
HJV (hemojuvelin BMP co-receptor) #2: 1.84
HJV (hemojuvelin BMP co-receptor) #3: 0.173
LIMD1 (LIM domain containing 1) #1: 0.76
LIMD1 (LIM domain containing 1) #2: 0.398
LIMD1 (LIM domain containing 1) #3: -0.475

More records follow:
With knock-down of ORC6 (origin recognition complex subunit 6) #1, the screen gave total luciferase, z-score -0.533; total luciferase, % of control 71.3.
With knock-down of ORC6 (origin recognition complex subunit 6) #2, the record shows total luciferase, z-score -0.0282; total luciferase, % of control 81.3.
With knock-down of ORC6 (origin recognition complex subunit 6) #3, the screen gave total luciferase, z-score -1.61; total luciferase, % of control 49.8.
PIGM (phosphatidylinositol glycan anchor biosynthesis class M) #1 scored total luciferase, z-score 0.053; total luciferase, % of control 82.9.
For PIGM (phosphatidylinositol glycan anchor biosynthesis class M) #2, the entry reads total luciferase, z-score -0.699; total luciferase, % of control 68.
PIGM (phosphatidylinositol glycan anchor biosynthesis class M) #3 gave total luciferase, z-score -1.84; total luciferase, % of control 45.3.
For ZNF271P (zinc finger protein 271, pseudogene) #1, the entry reads total luciferase, z-score -0.921; total luciferase, % of control 63.6.
ZNF271P (zinc finger protein 271, pseudogene) #2 scored total luciferase, z-score 0.154; total luciferase, % of control 85.
With knock-down of ZNF271P (zinc finger protein 271, pseudogene) #3 the results were total luciferase, z-score -1.09; total luciferase, % of control 60.2.
For IGF2BP2-AS1 (IGF2BP2 antisense RNA 1) #1, the values are total luciferase, z-score -0.00897; total luciferase, % of control 81.7.
Against IGF2BP2-AS1 (IGF2BP2 antisense RNA 1) #2 the deposit lists total luciferase, z-score 1.06; total luciferase, % of control 103.
Against IGF2BP2-AS1 (IGF2BP2 antisense RNA 1) #3 the deposit lists total luciferase, z-score -1.67; total luciferase, % of control 48.6.
MRPL2 (mitochondrial ribosomal protein L2) #1 scored total luciferase, z-score -0.418; total luciferase, % of control 73.6.
MRPL2 (mitochondrial ribosomal protein L2) #2 showed total luciferase, z-score -0.794; total luciferase, % of control 66.1.
For MRPL2 (mitochondrial ribosomal protein L2) #3, the entry reads total luciferase, z-score -0.541; total luciferase, % of control 71.1.
Silencing of PRODH (proline dehydrogenase 1) #1 resulted in: total luciferase, z-score 1.54; total luciferase, % of control 113.
After knock-down of PRODH (proline dehydrogenase 1) #2, the record shows total luciferase, z-score 1.66; total luciferase, % of control 115.
Against PRODH (proline dehydrogenase 1) #3, the values are total luciferase, z-score -0.386; total luciferase, % of control 74.2.
STX5 (syntaxin 5) #1 showed total luciferase, z-score -1.2; total luciferase, % of control 58.
STX5 (syntaxin 5) #2 gave total luciferase, z-score 0.0745; total luciferase, % of control 83.4.
Against STX5 (syntaxin 5) #3 the deposit lists total luciferase, z-score 0.954; total luciferase, % of control 101.
